Test results reported in PMC5500841.
Results are given in words; binding and its absence hold for the method and conditions named. Binding seen in cells or lysates may run through a third protein.

By UniProt entry, the sequences of proteins in these tests, tags left out. Where a name states a change or a piece, a line headed by the entry shows the natural chain unless it says otherwise. Chains listed by the source or under a name are the forms on record and can include a tag or linker.
Kit(K642E) of GIST882 cells (human (endogenous in GIST882)) (P10721, form named): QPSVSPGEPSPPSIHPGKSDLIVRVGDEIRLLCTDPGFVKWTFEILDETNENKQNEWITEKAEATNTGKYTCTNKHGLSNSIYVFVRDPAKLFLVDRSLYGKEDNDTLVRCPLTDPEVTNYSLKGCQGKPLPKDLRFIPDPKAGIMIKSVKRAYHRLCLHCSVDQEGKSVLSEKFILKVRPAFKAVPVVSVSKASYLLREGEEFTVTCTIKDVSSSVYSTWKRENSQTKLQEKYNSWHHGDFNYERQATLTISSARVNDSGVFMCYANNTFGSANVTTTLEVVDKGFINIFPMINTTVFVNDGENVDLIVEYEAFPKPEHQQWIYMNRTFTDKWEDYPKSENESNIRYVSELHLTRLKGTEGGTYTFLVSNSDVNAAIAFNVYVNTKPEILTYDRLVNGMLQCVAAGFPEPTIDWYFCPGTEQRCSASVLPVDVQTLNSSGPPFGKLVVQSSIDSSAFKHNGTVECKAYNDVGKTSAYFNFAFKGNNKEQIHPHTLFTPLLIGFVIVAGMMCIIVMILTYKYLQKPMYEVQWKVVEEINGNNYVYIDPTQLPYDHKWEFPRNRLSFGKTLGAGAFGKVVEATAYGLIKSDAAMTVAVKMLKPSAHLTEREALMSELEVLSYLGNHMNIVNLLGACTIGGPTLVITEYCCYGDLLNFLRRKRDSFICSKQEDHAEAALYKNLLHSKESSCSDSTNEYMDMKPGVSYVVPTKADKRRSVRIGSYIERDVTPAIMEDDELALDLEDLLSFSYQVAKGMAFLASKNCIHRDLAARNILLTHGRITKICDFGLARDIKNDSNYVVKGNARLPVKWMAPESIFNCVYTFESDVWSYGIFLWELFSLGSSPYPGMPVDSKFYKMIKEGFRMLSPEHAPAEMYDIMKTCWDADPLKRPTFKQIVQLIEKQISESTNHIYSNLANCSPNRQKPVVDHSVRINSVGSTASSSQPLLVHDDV
UniProt P07947: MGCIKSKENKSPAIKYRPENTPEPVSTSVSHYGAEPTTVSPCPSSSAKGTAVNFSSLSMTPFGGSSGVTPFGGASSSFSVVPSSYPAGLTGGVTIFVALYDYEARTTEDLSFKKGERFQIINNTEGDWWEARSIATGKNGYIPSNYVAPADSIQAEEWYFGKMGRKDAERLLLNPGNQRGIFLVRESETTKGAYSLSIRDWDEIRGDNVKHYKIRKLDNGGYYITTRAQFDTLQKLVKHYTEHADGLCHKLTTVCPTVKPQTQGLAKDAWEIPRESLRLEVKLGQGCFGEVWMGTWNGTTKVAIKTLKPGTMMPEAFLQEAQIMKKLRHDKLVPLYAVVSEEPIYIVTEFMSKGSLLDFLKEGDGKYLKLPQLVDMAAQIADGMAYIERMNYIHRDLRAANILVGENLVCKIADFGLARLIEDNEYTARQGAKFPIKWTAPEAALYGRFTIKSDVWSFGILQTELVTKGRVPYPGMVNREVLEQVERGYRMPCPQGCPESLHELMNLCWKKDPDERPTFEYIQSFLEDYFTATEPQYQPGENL

Biological target: Kit(K642E) of GIST882 cells (human (endogenous in GIST882)) (UniProt P10721)
Experiment: co-IP; immunoprecipitates from GIST882 cells treated or not with 200 nM imatinib for 4 h, immunoblotted; NP-40 lysates, protein G pre-coated with antibody, 4 °C, 5 h

Yes (from UniProt P07947 1-543) (enzyme)
binding: no binding
